Source: US6808875B2, “Methods for screening cellular proliferation using isotope labels” (priority 1997, dated 2004)
Several values for one entry are separate records, joined by “and”; a condition that tells them apart may be missing. Equal values may be shown once.

Assays:
[1] = test system: lymphocytic cell line, H9; assay: Label incorporation into dA of DNA in cultured H9 cells (GC-MS, cell counting); assay type: cell-based
Procedure: (§1) DNA was prepared from cells or tissues by phenol-chloroform-isoamyl alcohol extraction of cell suspensions or tissue homogenates. Yield and purity were confirmed by optical density. After heat denaturation, DNA was hydrolyzed enzymatically to deoxyribonucleosides by sequential digestion with nuclease P1, phosphodiesterase, and alkaline phosphatase, as described by Crain et al. (Crain, 1990, Methods Enzymol. 193:782-790). Nucleoside yield and purity were confirmed by HPLC using a C-18 column and water-methanol gradient (Shigenaga et al., 1994, Methods Enzymol. 234:16-33).
(§2) Trimethylsilyl derivatives of nucleosides were synthesized by incubation of lyophilized hydrolysates with BSTFA:pyridine (4:1) at 100° C. for 1 hour. Samples were analyzed by GC-MS (DB-17 HT column, J&W Scientific, Folsom Calif.; HP 5890 GC and 5971MS, Hewlett Packard, Palo Alto, Calif.). Abundances of ions at mass to charge ratio (m/z) 467 and 469 were quantified under selected ion recording mode for deoxyadenosine (dA); and m/z 555 and 557 were monitored for deoxyguanosine (dG). Under the derivatization and GC-MS conditions employed, the purines (dA and dG) gave larger peaks (FIG. 3) than the pyrimidines, resulting in greater sensitivity and a higher signal-to-noise ratio. To measure the enrichment of glucose, plasma or culture media were deproteinized with perchloric acid and passed through anion and cation exchange columns (Neese et al., 1995, J. Biol. Chem. 270:14452-14463). The glucose penta-acetate derivative was formed by incubation with acetic anhydride in pyridine. GC-MS analysis was performed as described previously (Neese et al., 1995, J. Biol. Chem […]), monitoring m/z 331 and 333 under selected ion recording.
(§3) Two cell lines were used: a hepatocyte cell line, HepG2, and a lymphocytic cell line, H9, which is a CD4^+ T cell line. HepG2 cells were grown in 10 ml dishes with alpha-modified Dulbecco's minimum essential media (MEM). H9 cells were grown in suspension in RPMI 1640. Both were grown in the presence of 10% dialyzed fetal calf serum and antibiotics (all reagents were obtained from Gibco-BRL, Gaithersburg, Md., except where stated). In both cases the number of cells present was measured by counting an aliquot on a Coulter ZM0901 cell counter. For HepG2 cells, plating efficiency was corrected for by counting an identical plate at the beginning of each labeling phase. […] In some experiments, glucose free medium was used and only 100% labeled glucose was present in the medium. Additional experiments were carried out in the presence of [U-^13C6] glucose and [2-^13C1] glycerol (Cambridge Isotope Laboratories, Andover, Mass.).
(§4) The above cell culture experiments were performed in the absence of deoxyribonucleosides in the medium. […]

[2] = test system: hepatocyte cell line, HepG2; assay: Label incorporation into dA of DNA in cultured HepG2 cells (GC-MS, cell counting); assay type: cell-based
Procedure: as §1, §2, §3, §4

[3] = test system: intestinal epithelium, thymus, liver; assay: In vivo incorporation of [6,6-^2H2] glucose into dA in DNA in various tissues in rats; details: for dA Enrichment: ca. 24 hr iv infusion
[4] = rat intestinal epithelium, linear kinetic model

SMILES: OC[13CH](O)CO [[2-^13C1] glycerol]
- GNG contribution to dA (MIDA) ([1]; H9, 100 μg/ml): no measurable GNG
- Incorporation of ^13C into dA ([2]; HepG2, 20 μg/ml): negligible incorporation
- dA pentose ring synthesis arising from GNG (MIDA) ([2]; HepG2, 100 μg/ml): 17.8%

SMILES: [2H]C([2H])(O)[C@H]1OC(O)[C@H](O)[C@@H](O)[C@@H]1O (some centres unmarked) [[6,6-^2H2] glucose]
- Maximum enrichment of dA ([1]; H9, 100% labeled glucose medium, 25 days): about 65%
- Estimated plateau dA enrichment, as fraction of the medium glucose enrichment ([1]; H9, extrapolation to 100% new cells): 0.525
- Maximum enrichment of dA ([2]; HepG2, 100% labeled glucose medium, 53 days): about 65%
- Percent New Cells, Uncorrected ([3]; rat intestinal epithelium): 34.6 ± 4.2
- dA Enrichment ([3]; rat intestinal epithelium): 3.18 ± 0.24%
- Turnover time, Corrected [3, 4]: 1.8 ± 0.2 days and 1.84 ± 0.24 days
- Turnover time, Uncorrected [3, 4]: 2.8 ± 0.4 days and 2.83 ± 0.37 days
- Percent New Cells, Corrected ([3]; rat intestinal epithelium, […] plasma glucose enrichment): 53.2 ± 6.5
- Percent New Cells, Corrected ([3]; rat liver): 4.2 ± 0.9
- Percent New Cells, Uncorrected ([3]; rat liver): 2.7 ± 0.5
- dA Enrichment ([3]; rat liver): 0.25 ± 0.06%
- Rate Constant, K, Corrected ([3]; rat liver, exponential model): 0.044 ± 0.008 day⁻¹
- Rate Constant, K, Uncorrected ([3]; rat liver, exponential model): 0.028 ± 0.005 day⁻¹
- t1/2, Corrected ([3]; rat liver, exponential model): 16.2 ± 3.1 days
- t1/2, Uncorrected ([3]; rat liver, exponential model): 25.4 ± 4.9 days
- Percent New Cells, Corrected ([3]; rat thymus): 38.9 ± 3.1
- Percent New Cells, Uncorrected ([3]; rat thymus): 25.3 ± 2.2
- dA Enrichment ([3]; rat thymus): 2.33 ± 0.08%
- Rate Constant, K, Corrected ([3]; rat thymus, exponential model): 0.51 ± 0.058 day⁻¹
- Rate Constant, K, Uncorrected ([3]; rat thymus, exponential model): 0.302 ± 0.030 day⁻¹
- t1/2, Uncorrected ([3]; rat thymus, exponential model): 2.31 ± 0.23 days

SMILES: O[13CH2][13C@H]1O[13CH](O)[13C@H](O)[13C@@H](O)[13C@@H]1O (some centres unmarked) [[U-^13C6] glucose]
- Asymptote of M5 enrichment of dA, % of extracellular glucose enrichment ([1]; H9, 10% labeled glucose): approximately 60%
- Asymptote of M5 enrichment of dA, % of the extracellular enrichment ([2]; HepG2, 10% labeled glucose): approximately 80%
